# From the supplement of paper PMC3334620
# Over roughly 33,000 sequences, “E-score (-0.5 to 0.5)” has its median near -8e-05; the highest 2% begin near 0.23. Some of the results follow.
# Molecular target: T1, Nrg2 (UniProt P38082)
# T1 sequence: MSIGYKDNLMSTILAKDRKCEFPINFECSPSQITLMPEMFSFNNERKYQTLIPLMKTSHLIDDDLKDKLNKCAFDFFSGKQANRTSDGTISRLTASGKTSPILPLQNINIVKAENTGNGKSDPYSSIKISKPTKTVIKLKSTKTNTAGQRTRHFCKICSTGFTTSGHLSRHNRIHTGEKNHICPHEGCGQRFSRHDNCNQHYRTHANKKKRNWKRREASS
# Experiment: PBM E-score (8-mer binding enrichment) (E-score (-0.5 to 0.5)); higher = stronger / more preferred TF binding
# Details: protein concentration: 100 nM; construct: GST-full length
# Procedure, shortened: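 Using PURExpress in vitro transcription/translation, GST-tagged yeast transcription factors were made in full-length or DNA-binding-domain form. These were applied at about 100-200 nM to double-stranded universal all-10-mer Agilent arrays, and bound protein was detected with fluorescent anti-GST. Scans were normalised with masliner before the Universal PBM Analysis Suite assigned E-scores to ungapped eight-base words pooled with their reverse complements.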
row,Sequence,PBM E-score
1,ACTACTAG,0.166
2,AGGTATTA,0.107
3,ATTAAGTC,-0.00856
4,CATAATCG,0.172
5,AAGAGGTG,0.026
6,CTACCGCA,-0.133
7,ACTCTAAA,0.101
8,CTGAAGTC,-0.00958
9,CGGGTACC,-0.0855
10,ATCCGTCC,-0.0738
11,GAAACTTC,0.146
12,ATTTCCAC,0.255
13,ATTAAAGG,0.16
14,AGCTCTTG,0.0917
15,ACGAACCG,-0.00219
16,CCCTTACC,0.00243
17,ACGGCGGC,-0.045
18,AGTGCTGA,-0.0594
19,AACAACGC,0.0965
20,CGGTCCAG,-0.183
21,ATATATGA,0.0746
22,AATATTAA,0.295

row,Sequence,PBM E-score
1,AGCCTAAT,-0.0949
2,GACGTACC,-0.108
3,CTTTCGTA,0.0684
4,ACGCTAGG,-0.266
5,GCCAGGCA,-0.13
6,GTATGATA,0.281
7,CACCCTTA,0.147
8,ACGTCAAA,-0.0307
9,ACGCCATG,-0.0604
10,AAGCTTGG,-0.101
11,AACCACCT,0.0907
12,CGCTGGTA,-0.274
13,AGGAGGAA,-0.282
14,AACGATCG,0.0433
15,AACTAGTC,0.0549
16,ATACTGGG,-0.119
17,ACCCAAGT,0.0825
18,AGCGTGAC,-0.0668
19,CAGGAACC,0.00077
20,CTCTTCCC,-0.189
21,CACGTCAA,-0.128
22,AATTGGTC,0.216

row,Sequence,PBM E-score
1,AGATCTAT,-0.0448
2,ATATCCAT,0.108
3,AGGGGTCC,0.316
4,ACCGTTTG,-0.0384
5,CGCCCAGA,-0.152
6,TGAGCGCA,0.0359
7,AGGGCCCC,0.0359
8,CCTGGCGA,0.00579
9,TACCGTCA,0.00993
10,AAAGTTGC,0.0327
11,TAGCTCAA,-0.091
12,AAGGGGGA,-0.218
13,AGGTCTTG,-0.138
14,CGGAGGAA,-0.3
15,TGGCAACA,0.0565
16,ATTGTATA,0.204
17,CAACAGGC,-0.129
18,AATCCAGT,0.208
19,TATTTCAA,0.102
20,CCTTAGGA,-0.062
21,CGATCATC,0.0521
22,TTGCACAA,0.0407

row,Sequence,PBM E-score
1,AGGCTAGG,-0.245
2,AAGGCGGT,-0.159
3,AGCATGTG,0.0722
4,TACGCGAA,0.188
5,CATGATGA,0.0818
6,AAGTATCG,0.0639
7,CCCAGCCC,-0.135
8,CCGCTAAA,0.0162
9,GGATCCAA,0.0813
10,GCATTGCC,-0.0164
11,CGCGGAAG,0.005
12,GGAACGTA,-0.0733
13,AATAACTC,0.109
14,AATAGTTC,0.0571
15,ACCGGTGC,-0.225
16,AATTAAAT,0.0221
17,CCATTTCC,0.119
18,CAGCCGAG,-0.0487
19,GCGTTTTA,0.00611
20,CACGATAC,-0.129
21,AATAATAA,0.0987
22,GTCCAAGA,-0.142

# Looked up one by one from above, 5 records:
row,Sequence,PBM E-score
20,CACGATAC,-0.129
3,AGCATGTG,0.0722
21,AATAATAA,0.0987
15,ACCGGTGC,-0.225
12,GGAACGTA,-0.0733

# Continued:

row,Sequence,PBM E-score
1,TCACGCCA,0.0403
2,AAGTACCA,-0.0295
3,AGACTCCA,-0.222
4,TAGTTGAA,0.0345
5,TATAGGCA,-0.0788
6,CCACGTTC,-0.0538
7,ATAACAGC,0.00153
8,TGAAGCCA,-0.084
9,AAGCTGGT,0.0648
10,CTCTCAAA,-0.00501
11,GGTAAGGA,-0.241
12,ATTGCTTG,0.108
13,CGTCCACC,-0.167
14,AAAACAAT,0.0988
15,CATTGGGC,-0.178
16,GACTTCAC,-0.0326
17,ATCCTTCA,0.0591
18,GCGAGCGC,0.0389
19,GCACTCAC,-0.0616
20,GGCTTAAA,-0.0977
21,AAAATCGT,0.0788
22,CAGAGCGC,-0.213
